Here are results for two sequences from article PMC11879501.

For this data set, the system named is GST-FhMYBPA2 (Freesia hybrida 'Red River'). Briefly: EMSA. To be noted: EMSA kit (Beyotime) per manufacturer's instructions; pH and temperature not stated; recombinant protein; protein details: N-terminal GST (pGEX-4T-2). (Mobility shift assays separate free from complexed probe on a gel.)

The exact form of at least one protein or probe is not confirmed.

On to “GTAATTAGCATATATGGATAGAATTGCATTTAATT (double strand) [FhDFR3 probe]”, for which the binding result was “binds”.
The same measure for “TCAAATCCCAAATGCAACAGAATAACTGATCAGA (double strand) [FhTTG1 probe]”: “binds”.
